These results are taken from article PMC2679207, “GLS-1, a Novel P Granule Component, Modulates a Network of Conserved RNA Regulators to Influence Germ Cell Fate Decisions” (PLoS Genetics, 2009).

Results are given in words; binding and its absence hold for the method and conditions named. For some of these results: Binding can be weak; no strength is given. Sequences can lack the tags named with a protein.

For experiment [1], the target named is T1, GLD-3L (yeast two-hybrid fusion) (C. elegans) (UniProt Q95ZK7).
T1 sequence: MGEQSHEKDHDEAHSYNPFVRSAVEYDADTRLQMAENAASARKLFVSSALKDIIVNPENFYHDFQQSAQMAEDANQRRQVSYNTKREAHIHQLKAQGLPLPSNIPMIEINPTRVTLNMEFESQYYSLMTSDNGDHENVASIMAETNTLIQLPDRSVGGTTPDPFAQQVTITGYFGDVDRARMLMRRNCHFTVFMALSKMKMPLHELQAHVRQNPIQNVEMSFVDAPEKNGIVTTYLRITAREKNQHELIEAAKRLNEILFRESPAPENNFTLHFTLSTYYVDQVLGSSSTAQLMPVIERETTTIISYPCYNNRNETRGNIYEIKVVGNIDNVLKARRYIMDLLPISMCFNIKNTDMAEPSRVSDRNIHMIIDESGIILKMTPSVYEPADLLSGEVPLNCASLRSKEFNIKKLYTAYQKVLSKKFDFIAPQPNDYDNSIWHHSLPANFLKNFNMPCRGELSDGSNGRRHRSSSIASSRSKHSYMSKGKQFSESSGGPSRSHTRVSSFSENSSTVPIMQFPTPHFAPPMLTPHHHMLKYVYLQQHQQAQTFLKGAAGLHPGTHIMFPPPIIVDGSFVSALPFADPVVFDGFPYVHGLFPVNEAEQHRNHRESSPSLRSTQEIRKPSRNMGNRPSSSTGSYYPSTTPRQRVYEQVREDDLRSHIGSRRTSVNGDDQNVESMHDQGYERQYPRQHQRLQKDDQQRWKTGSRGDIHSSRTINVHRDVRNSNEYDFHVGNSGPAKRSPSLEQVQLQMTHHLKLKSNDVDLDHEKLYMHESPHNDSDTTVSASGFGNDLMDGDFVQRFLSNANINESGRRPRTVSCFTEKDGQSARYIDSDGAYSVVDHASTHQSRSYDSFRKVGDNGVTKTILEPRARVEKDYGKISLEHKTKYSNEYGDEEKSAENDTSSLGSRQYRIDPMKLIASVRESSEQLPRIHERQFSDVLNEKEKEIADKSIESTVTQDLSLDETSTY
Kind of experiment: two-hybrid; yeast; protein truncations; strength rated by the blue colour of a beta-galactosidase substrate (filter assay).

In experiment [2] the target is GST fusion of the C-terminal half of GLD-3L (C. elegans). Kind of experiment: pull-down; GST pull-down; purified full-length GLS-1^6xHis and GLD-3 fragments fused to GST; GLS-1 visualized with anti-His antibodies; both purified.
Experiment [3] addresses ceBCC-1 (yeast two-hybrid fusion) (C. elegans). Kind of experiment: two-hybrid; yeast; protein pairs fused to the LexA DNA binding domain and the Gal4 transcriptional activation domain; beta-galactosidase activities in arbitrary units.
Experiment [4] has as its target GLD-3L N-terminal region covering all KH domains (yeast two-hybrid fusion) (C. elegans). Kind of experiment: two-hybrid; yeast; protein truncations; strength rated by the blue colour of a beta-galactosidase substrate (filter assay).

Turning to “GLS-1 C-terminal region of 160 amino acids (yeast two-hybrid fusion) (C. elegans) (domain or fragment)”, the binding result in experiment [1] was “binds”.

B1: GLS-1(FL) with C-terminal His tag, from insect cells (protein, UniProt Q8I4M5 26-1052)
chain: LTLQEKRKKSRLTGILMKSMANKKNHQQKKSTDGSTMNGNNATATAAATTQNSSQIGQNSNSSHSVTNDNTSSNNASTSTSSITSTTTTTTTVPSSQQSQSQNQYSHQRLSSTSSTSQQTGISKFPAKKAGHNELEKTSNTANSQSGAFKGTTNKDRPKEKEKNTHSGNRQSQVNHNHHHSNHVSGNQQNRKNKNRDHSNQSYRGGYTHNHNNYHSLENAKSSGFLSNSSLSSAGQISASSAPPVSTTPTAIPIFQESKIVQTDPPVEEAKKKKEKPKIKRDEEPMPYKSTDPKNMDSVMAFKEHDEWDKVEFMCELVSFLSPTDLRLLGNCIEGSVRCYNNQMRPVEKTSNCSDPTAGLPQFVCSPPPPPQQVYYFPGIADAALYQTRNAVNSVFVQQHPPGLPPLLGGMQNIMYPPDANFHHSTSCTTPSSSVSVANKDVNNVPVVLSSSVNGISNNIPSDRQQLDSKPNTARGSSGNINQSNTTSPEPEPGSNHISTTAANPAHPTSVTVPQSVPPVPQEPELFLKSVLDLTSYIYTLMAVCSSTNRKSAAKISDYVQNVILREKSQILERIPDELDKITVLQEIGKIVAAMTHHPAITLDDKMKYAALRDGLRAQIETLFRQYYTTQKQLEQSNLVVPSSQAVGDENDTDSDHESEEEFEPLSGVMGSRFESNPVQPSPSVPGTFFIIRFIGRQIEKNDNLFSLEIHWSDGDRTFAQRSRDQLKALQHRLLDEFGQQRSEKYLHQGCTTSYSSFDDDNKKLSASTSTMETFAPNGERIVPRLARDATPAQYVQYINELSDLPARMMLSAVICEEFNGTRAKTEDLLQETREASDGLIYSRWKNPRAKSPVRYFKRNATGSIDPIELPVNMQPFLYSNIPQTQVQTLFPSCSNCGGPHAPKHCEKQTLLSKKGDHRTRSDGEGSQQNGGTSSSNSYAPIHANLPHAVYIENPQAMLGSNHFNHHQQQHIIQNTIFHNGGQFRANGTYEPQIPIAYYHAQGTVQNSNNTGGVNGNSGGGNQNSNF
As to B1, in experiment [2], the binding entry is “binds”.

B2: GLS-1 (yeast two-hybrid fusion) (protein, UniProt Q8I4M5 1-1052)
chain: MRCLISYLFHSFLIFLKFIRSDVTALTLQEKRKKSRLTGILMKSMANKKNHQQKKSTDGSTMNGNNATATAAATTQNSSQIGQNSNSSHSVTNDNTSSNNASTSTSSITSTTTTTTTVPSSQQSQSQNQYSHQRLSSTSSTSQQTGISKFPAKKAGHNELEKTSNTANSQSGAFKGTTNKDRPKEKEKNTHSGNRQSQVNHNHHHSNHVSGNQQNRKNKNRDHSNQSYRGGYTHNHNNYHSLENAKSSGFLSNSSLSSAGQISASSAPPVSTTPTAIPIFQESKIVQTDPPVEEAKKKKEKPKIKRDEEPMPYKSTDPKNMDSVMAFKEHDEWDKVEFMCELVSFLSPTDLRLLGNCIEGSVRCYNNQMRPVEKTSNCSDPTAGLPQFVCSPPPPPQQVYYFPGIADAALYQTRNAVNSVFVQQHPPGLPPLLGGMQNIMYPPDANFHHSTSCTTPSSSVSVANKDVNNVPVVLSSSVNGISNNIPSDRQQLDSKPNTARGSSGNINQSNTTSPEPEPGSNHISTTAANPAHPTSVTVPQSVPPVPQEPELFLKSVLDLTSYIYTLMAVCSSTNRKSAAKISDYVQNVILREKSQILERIPDELDKITVLQEIGKIVAAMTHHPAITLDDKMKYAALRDGLRAQIETLFRQYYTTQKQLEQSNLVVPSSQAVGDENDTDSDHESEEEFEPLSGVMGSRFESNPVQPSPSVPGTFFIIRFIGRQIEKNDNLFSLEIHWSDGDRTFAQRSRDQLKALQHRLLDEFGQQRSEKYLHQGCTTSYSSFDDDNKKLSASTSTMETFAPNGERIVPRLARDATPAQYVQYINELSDLPARMMLSAVICEEFNGTRAKTEDLLQETREASDGLIYSRWKNPRAKSPVRYFKRNATGSIDPIELPVNMQPFLYSNIPQTQVQTLFPSCSNCGGPHAPKHCEKQTLLSKKGDHRTRSDGEGSQQNGGTSSSNSYAPIHANLPHAVYIENPQAMLGSNHFNHHQQQHIIQNTIFHNGGQFRANGTYEPQIPIAYYHAQGTVQNSNNTGGVNGNSGGGNQNSNF
With B2, the binding entry in experiment [3] was “no binding”; in experiment [4] it was “binds”.
